No constants are given. Whether binding was seen depends on the method and setting. In cells and extracts the contact can be indirect. Binding calls can cover weak binding; strength is not graded here. Where a sequence is shown, tags or fusion partners need not be part of it.

For one substance, binding results are on record in publication PMC7038599.

The target of the assay is T1, poSn helical transmembrane plus cytoplasmic domain, myc-his tagged (poSn-TCD-myc-his) (pig) (UniProt A7LCJ3).
T1 sequence: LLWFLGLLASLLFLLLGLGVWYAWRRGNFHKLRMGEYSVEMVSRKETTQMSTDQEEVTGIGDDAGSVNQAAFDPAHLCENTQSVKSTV
The assay can be described thus: co-IP; HEK-293T cells co-transfected for 48 h; whole cell lysates in IP lysis buffer mixed with anti-myc or anti-Flag mAb and Protein A/G beads at 4 °C for 3 h or overnight; washed with TBST; eluted with 0.05 M glycine-HCl pH 2.2; immunoblot. On the technique in general: Immunoblotting shows a protein as a band on a membrane.

For the substance DAP12-D50A (3×Flag tagged) (pig), the binding result is “binds”.
